Measurements from “University of Dundee, Small-Polar-MMV Screening Library” (2021), ChEMBL document CHEMBL3988442.

Results are given as percent effect.
How 0% and 100% were set is not recorded. Most values in the screen are low, and negative values occur.
The compounds are a random part of those screened.

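Whole-parasite assay of Trypanosoma brucei over 72 hours; the read-out is not stated. Tested at 30 µM. The record gives no direction; compounds that gave an IC50 in retests scored well above the rest, so higher reads as stronger inhibition. Values scatter widely below zero; nearly all retest evidence comes from the higher of the two concentrations used. Of about 64,000 compounds tested this way, about 940 (1.5%) reached 50% or more in at least one test.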

{"compound": "[H][C@@]12CCN(S(=O)(=O)C3CC3)C[C@@]1([H])O[C@@H](c1ccnc(C)n1)C2", "percent effect": -36.22}
{"compound": "CC(C)(C)c1nc(CN2CCOC(Cn3cncn3)C2)cs1", "stereo": "stereo not drawn", "percent effect": 4.155}
{"compound": "Cc1noc(C)c1NC(=O)NC1CCN(C(=O)OC(C)(C)C)CC1", "percent effect": -49.98}
{"compound": "CCn1nc(C)cc1C(=O)N1CCOc2ccc(OC)cc21", "percent effect": -378.9}
{"compound": "Cc1nc(NC(=O)NC2CC(=O)N(C)C2)nn1C", "stereo": "stereo not drawn", "percent effect": -21.02}
{"compound": "COCCNC(=O)N1CCN(c2cc(F)ccc2F)CC1", "percent effect": -42.5}
{"compound": "CC(=O)c1c(C)nn(S(=O)(=O)c2ccc(Cl)cc2)c1C", "percent effect": -42.82}
{"compound": "COCCN(Cc1nccs1)C(=O)c1cc(-c2ccc(C)s2)n[nH]1", "percent effect": 7.066}
{"compound": "Cc1csc(CN(C)S(=O)(=O)c2ccc(C)c(N(C)C)c2)n1", "percent effect": -18.25}
{"compound": "CCn1cc(CN2CCCN(C(=O)CCc3ccncc3)CC2)cn1", "percent effect": 0.3436}
{"compound": "O=C(NCc1cn2c(n1)CN(Cc1nccs1)CC2)C1CCC1.O=C(O)C(F)(F)F", "percent effect": -9.049}
{"compound": "[H][C@@]12CS(=O)(=O)C[C@]1([H])N(C(=O)Nc1ccccc1Cl)CCN2CC1CC1", "percent effect": -39.32}
{"compound": "[H][C@@]12CN(Cc3ccccn3)C(=O)N1CCN(S(=O)(=O)c1ccccc1)C2", "percent effect": 6.359}
{"compound": "CCN1Cc2ccccc2CC2(CCN(C)CC2)C1=O", "percent effect": -33.6}
{"compound": "CC(C)C(=O)NCC(=O)N(C)C1CCCN(C2Cc3ccccc3C2)C1", "stereo": "stereo not drawn", "percent effect": -6.886}
{"compound": "CCn1cc(S(=O)(=O)NCc2ccnc(-n3ccnc3)c2)cn1", "percent effect": -37.7}
{"compound": "CC(C)(C)NC(=O)CNC(=O)Nc1cc(-c2ccccc2)ns1", "percent effect": -16.03}
{"compound": "Cc1cc(N(C)CC2COc3ccccc3O2)nc(C)n1", "stereo": "stereo not drawn", "percent effect": -13.97}
{"compound": "Cc1nn(C)cc1C1CC(=O)Nc2c1cnn2C", "stereo": "stereo not drawn", "percent effect": 9.69}
{"compound": "CCNC(=O)N1CCC(NC(=O)NCCCc2cccc(F)c2)C1", "stereo": "stereo not drawn", "percent effect": -11.48}
{"compound": "O=C(CC1CCCC1)N1CCn2cc(Cn3cccn3)nc2C1.O=C(O)C(F)(F)F", "percent effect": -840.1}
{"compound": "CC1CCN(CCNC(=O)C2CCN(C(=O)NC(C)C)CC2)CC1", "percent effect": -31.55}
{"compound": "CNC(=O)CCN1CCCCCC1c1ccc(C)o1", "stereo": "stereo not drawn", "percent effect": -77.68}
{"compound": "CC(C)N1CCC(CC(=O)NCC2OCCc3ccccc32)CC1", "stereo": "stereo not drawn", "percent effect": -4.412}
{"compound": "COCC(O)CN1CCC(NC(=O)c2cccc(C)c2)CC1", "stereo": "stereo not drawn", "percent effect": -44.68}
{"compound": "Cc1cccc(-n2cc(C(=O)N3CCn4c(C)nnc4C3)nn2)c1", "percent effect": -30.93}
{"compound": "CC(C)c1noc(-c2cccc(OCC(N)=O)c2)n1", "percent effect": -16.45}
{"compound": "c1ccc(-c2nnn3c2COC(CNCc2ccccn2)C3)cc1", "stereo": "stereo not drawn", "percent effect": -21.66}
{"compound": "O=C(O)C(F)(F)F.O=C(O)CCC(=O)N1CCN(CC2CC2)c2ncccc2C1", "percent effect": -22.33}
{"compound": "Cc1cncc(C(=O)NCC2COCc3c(C)nnn3C2)c1", "stereo": "stereo not drawn", "percent effect": -27.34}
{"compound": "COc1ccc(F)cc1C(=O)N1CCCC(CNS(C)(=O)=O)C1", "stereo": "stereo not drawn", "percent effect": -13.3}
{"compound": "OCc1cc2ccccc2nc1N1CCCCC1", "percent effect": -27.27}
{"compound": "COc1cccc(N2CCN(Cc3ccc(NC(C)=O)cc3)CC2=O)c1", "percent effect": -12.17}
{"compound": "CCc1nnc2n1CCN(C(=O)c1cnc(C3CC3)s1)C2", "percent effect": -11.63}
{"compound": "Cc1ccc(-c2nn(-c3cccc(F)c3)cc2CN(C)CCO)o1", "percent effect": -95.22}
{"compound": "Fc1ccc(C(CNc2ccncn2)N2CCCCC2)cc1", "stereo": "stereo not drawn", "percent effect": -37.18}
{"compound": "CN(C)CCN1CCN(Cc2ccco2)Cc2cccnc21.O=C(O)C(F)(F)F.O=C(O)C(F)(F)F.O=C(O)C(F)(F)F", "percent effect": -35.27}
{"compound": "Cc1[nH]c(=O)[nH]c(=O)c1CN1CCCC(CCc2ccc(F)c(F)c2)C1", "stereo": "stereo not drawn", "percent effect": 18.16}
{"compound": "O=C(Cc1cc(-c2ccc3c(c2)OCCO3)on1)NCc1ccccn1", "percent effect": -32.33}
{"compound": "CN1CCCC(Cc2cncc(C(=O)NC3CC3)c2)C1", "stereo": "stereo not drawn", "percent effect": -30}
{"compound": "CCOc1cccc(CCNC(=O)Cc2cccc(O)c2)n1", "percent effect": 20.84}
{"compound": "COC(=O)C(C)CN(Cc1ccccc1)C(=O)CN1CCCNC1=O", "stereo": "stereo not drawn", "percent effect": -1.424}
{"compound": "O=C(NCCCN1CCOCC1)c1ccn(COc2ccc(F)cc2)n1", "percent effect": -30.9}
{"compound": "Cc1cc(O)cc(=O)n1CCCC(=O)Nc1n[nH]c2ccccc12", "percent effect": -22.95}
{"compound": "Cc1ccc(NC(=O)Nc2c(O)oc3ccccc3c2=O)cc1", "percent effect": -59.98}
{"compound": "[H][C@]12CC[C@]([H])(CN(C(=O)c3ccccn3)C1)N(C(=O)CCc1cccs1)C2", "percent effect": 39.74}
{"compound": "CCc1nc2c(N3CCC4(CC3)CC(=O)N(CC(C)C)C4)ncnc2o1", "percent effect": -31.54}
{"compound": "O=C(O)C(F)(F)F.[H][C@@]12C[C@@H](C(=O)NC3CCC3)C[C@@]1([H])N(CC1CC1)CCO2", "percent effect": -26.27}
{"compound": "CCc1cn[nH]c1C1CCCN(C(=O)c2noc(C)c2COC)C1", "stereo": "stereo not drawn", "percent effect": -26.55}
{"compound": "O=C(O)C(F)(F)F.[H][C@@]12CCN(CC(C)C)[C@@]1([H])CCN2S(=O)(=O)c1cn(C)cn1", "percent effect": -18.71}

For reference, 5 entries once more:

CC(C)c1noc(-c2cccc(OCC(N)=O)c2)n1 gave -16.45%.
Cc1cc(O)cc(=O)n1CCCC(=O)Nc1n[nH]c2ccccc12 gave -22.95%.
Fc1ccc(C(CNc2ccncn2)N2CCCCC2)cc1 (stereo not drawn) gave -37.18%.
CCc1nc2c(N3CCC4(CC3)CC(=O)N(CC(C)C)C4)ncnc2o1 gave -31.54%.
[H][C@]12CC[C@]([H])(CN(C(=O)c3ccccn3)C1)N(C(=O)CCc1cccs1)C2 gave 39.74%.